Data as given in patent publication US20060024658A1, “Composition and methods for evaluating an organism's response to alcohol or stimulants” (priority 1998, published 2006).

Test system: SHSY-5Y cells
Assay: Effects of alcohols on gene expression (array hybridization intensity) in SHSY-5Y cells, Study 1
Type: cell-based, human
Conditions: 100 mM ethanol
Text: Hybridization strength is given a baseline of 1 and increased intensity is expressed in as a multiple of the baseline, i.e., 2-fold, 3-fold, 4-fold etc.
Column 1 lists the presumed functional class of the gene.
Columns are similar to Table 8.

Compound: CCO [ethanol]
- number of genes increased in expression by 1.5-fold or more: Defense/homeostasis (acute, 2 hr): 1
- number of genes increased in expression: Cell structure (chronic, 72 hr): 2
- number of genes increased in expression: Defense/homeostasis (chronic, 72 hr): 0
